Source: patent US20070134261A1, “Effectors of innate immunity” (priority 2001, published 2007)
Not every detail of the peptide structures is certain; ends, links or a residue may be inferred. No end group written: not given here.

How the values were obtained:
[1] = tested on: RAW 264.7 mouse macrophage cells; type: cell-based; details: Peptide 20 μg/ml; 100 ng/ml E. coli 0111:B4 LPS, 6 h
[2] = tested on: A549 human epithelial cells; test: Induction of chemokines (IL-8, MCP-1) in A549 cells (ELISA); type: cell-based; details: peptide 10 ug/ml, 24 hr
Method: The murine macrophage cell line RAW 264.7, THP-1 cells (human monocytes), a human epithelial cell line (A549), human bronchial epithelial cells (16HBEo14), and whole human blood were used. HBE cells were grown in MEM with Earle's. THP-1 cells were grown and maintained in RPMI 1640 medium. The RAW and A549 cell lines were maintained in DMEM supplemented with 10% fetal calf serum. […] DMEM was aspirated from cells grown overnight and replaced with fresh medium. After incubation of the cells with peptide, the release of chemokines into the culture supernatant was determined by ELISA (R&D Systems, Minneapolis, Minn.).

[3] = type: cell-based; details: Staphylococcus aureus, overnight, 96-well plate
A549 epithelial cells = test: Human Operon arrays (PRHU04-S1) of A549 cells treated with peptide alone (Tables 31-37, 53); details: peptide 50 μg/ml, 4 h

Sequence: RREAIRRVAMRGRDMKRMRR [SEQ ID NO: 31]
- Inhibition of TNF-α [1]: 60.3 ± 0.6%
- IL-8 [2]: 0.168 ng/mL
- MIC, S. aureus [3]: >

Sequence: KNKAFAKMLMKALKKVTTAAKPLTG [SEQ ID NO: 44]
- Inhibition of TNF-α [1]: 44.9 ± 1.5%
- IL-8 [2]: 0.265 ng/mL
- MIC, S. aureus [3]: >

Sequence: KKDAIKKVDIRGMDMRRAR [SEQ ID NO: 28]
- Inhibition of TNF-α [1]: 56 ± 1.1%
- IL-8 [2]: 0.192 ng/mL
- MIC, S. aureus [3]: >

Sequence: LSRIAPAIPWAKL [SEQ ID NO: 10]
- Inhibition of TNF-α [1]: 55.5 ± 0.52%
- IL-8 [2]: 0.297 ng/mL
- MIC, S. aureus [3]: >

Sequence: KQKLFAKMLMSALKKKTLVTTPLAGK [SEQ ID NO: 45]
- Inhibition of TNF-α [1]: 44.7 ± 0.39%
- IL-8 [2]: 0.266 ng/mL
- MIC, S. aureus [3]: >

Sequence: KKQMMKRVDVRGISVKRKR [SEQ ID NO: 34]
- Inhibition of TNF-α [1]: 53.3 ± 0.9%
- IL-8 [2]: 0.315 ng/mL
- MIC, S. aureus [3]: >

Sequence: ELPLKRGRVPVE [SEQ ID NO: 16]
- Inhibition of TNF-α [1]: 37.5 ± 0.66%
- IL-8 [2]: 0.236 ng/mL
- MIC, S. aureus [3]: >
- ID#:ctrl intensity ratio, AB010419 core-binding factor (A549 epithelial cells): 2.9
- ID#:ctrl intensity ratio, AB014615 fibroblast growth factor 8 (A549 epithelial cells): 2.2
- ID#:ctrl intensity ratio, AB017016 brain-specific protein (A549 epithelial cells): 3.3
- ID#:ctrl intensity ratio, AB022847 unknown (A549 epithelial cells): 3.8
- ID#:ctrl intensity ratio, AB032436 unknown (A549 epithelial cells): 4.5
- ID#:ctrl intensity ratio, AC004079 homeo box A2 (A549 epithelial cells): 7.3
- ID#:ctrl intensity ratio, AF013620 Immunoglobulin heavy variable 4-4 (A549 epithelial cells): 8.2
- ID#:ctrl intensity ratio, AF053712 TNF superfamily_member 11 (A549 epithelial cells): 12.3
- ID#:ctrl intensity ratio, AF055018 unknown (A549 epithelial cells): 4.6
- ID#:ctrl intensity ratio, AK000685 unknown (A549 epithelial cells): 15.3
- ID#:ctrl intensity ratio, AK000946 DKFZP566C243 protein (A549 epithelial cells): 25.8
- ID#:ctrl intensity ratio, AK001230 DKFZP586D211 protein (A549 epithelial cells): 2.5
- ID#:ctrl intensity ratio, AL033377 unknown (A549 epithelial cells): 4.5
- ID#:ctrl intensity ratio, AL049296 unknown (A549 epithelial cells): 2.7
- ID#:ctrl intensity ratio, AL050219 unknown (A549 epithelial cells): 30.3
- ID#:ctrl intensity ratio, AL080182 unknown (A549 epithelial cells): 2.9
- ID#:ctrl intensity ratio, AL109726 uknown (A549 epithelial cells): 2.6
- ID#:ctrl intensity ratio, AL137284 unknown (A549 epithelial cells): 12.2
- ID#:ctrl intensity ratio, AL137540 unknown (A549 epithelial cells): 2.9
- ID#:ctrl intensity ratio, AL137658 unknown (A549 epithelial cells): 3.9
- ID#:ctrl intensity ratio, AL137728 unknown (A549 epithelial cells): 5.9
- ID#:ctrl intensity ratio, AL157466 unknown (A549 epithelial cells): 6.8
- ID#:ctrl intensity ratio, D38550 E2F TF 3 (A549 epithelial cells): 2.5
- ID#:ctrl intensity ratio, D45399 phosphodiesterase (A549 epithelial cells): 10.8
- ID#:ctrl intensity ratio, J04599 biglycan (A549 epithelial cells): 2.7
- ID#:ctrl intensity ratio, L17325 pre-T/NK cell associated protein (A549 epithelial cells): 4.0
- ID#:ctrl intensity ratio, M91036 hemoglobin gamma G (A549 epithelial cells): 30.4
- ID#:ctrl intensity ratio, M91036 hemoglobin_gamma A (A549 epithelial cells): 2.7
- ID#:ctrl intensity ratio, NM_012126 carbohydrate sulfotransferase 5 (A549 epithelial cells): 3.9
- ID#:ctrl intensity ratio, NM_012177 F-box protein (A549 epithelial cells): 3.0
- ID#:ctrl intensity ratio, NM_014178 HSPC156 protein (A549 epithelial cells): 14.4
- ID#:ctrl intensity ratio, NM_016331 zinc finger protein (A549 epithelial cells): 11.2
- ID#:ctrl intensity ratio, U22492 G protein-coupled receptor 8 (A549 epithelial cells): 6.6
- ID#:ctrl intensity ratio, U76010 solute carrier family 30 (A549 epithelial cells): 5.6
- ID#:ctrl intensity ratio, U76368 solute carrier family 7 (A549 epithelial cells): 4.2
- ID#:ctrl intensity ratio, X04014 unknown (A549 epithelial cells): 5.5
- ID#:ctrl intensity ratio, X04391 CD5 antigen (A549 epithelial cells): 6.1
- ID#:ctrl intensity ratio, X54673 Solute-carrier family 6 (A549 epithelial cells): 7.4
- ID#:ctrl intensity ratio, X58079 S100 calcium-binding protein A1 (A549 epithelial cells): 5.3
- ID#:ctrl intensity ratio, X85740 CCR4 (A549 epithelial cells): 12.5
- ID#:ctrl intensity ratio, Z11898 POU domain_class 5 TF 1 (A549 epithelial cells): 6.6
- ID#:ctrl intensity ratio, AL031121 unknown (A549 epithelial cells; Formula B peptides): 2.8
- ID#:ctrl intensity ratio, NM_012450 sulfate transporter 1 (A549 epithelial cells; Formula B peptides): 4.7
- ID#:ctrl intensity ratio, U21931 fructose-bisphosphatase 1 (A549 epithelial cells; Formula B peptides): 6.0
